{
  "sequences": {"note": "Amino acid sequences for entries named in this document (tags omitted). A change or cut given only in a name is not applied to a line headed by its entry.", "UniProt Q96RU3": "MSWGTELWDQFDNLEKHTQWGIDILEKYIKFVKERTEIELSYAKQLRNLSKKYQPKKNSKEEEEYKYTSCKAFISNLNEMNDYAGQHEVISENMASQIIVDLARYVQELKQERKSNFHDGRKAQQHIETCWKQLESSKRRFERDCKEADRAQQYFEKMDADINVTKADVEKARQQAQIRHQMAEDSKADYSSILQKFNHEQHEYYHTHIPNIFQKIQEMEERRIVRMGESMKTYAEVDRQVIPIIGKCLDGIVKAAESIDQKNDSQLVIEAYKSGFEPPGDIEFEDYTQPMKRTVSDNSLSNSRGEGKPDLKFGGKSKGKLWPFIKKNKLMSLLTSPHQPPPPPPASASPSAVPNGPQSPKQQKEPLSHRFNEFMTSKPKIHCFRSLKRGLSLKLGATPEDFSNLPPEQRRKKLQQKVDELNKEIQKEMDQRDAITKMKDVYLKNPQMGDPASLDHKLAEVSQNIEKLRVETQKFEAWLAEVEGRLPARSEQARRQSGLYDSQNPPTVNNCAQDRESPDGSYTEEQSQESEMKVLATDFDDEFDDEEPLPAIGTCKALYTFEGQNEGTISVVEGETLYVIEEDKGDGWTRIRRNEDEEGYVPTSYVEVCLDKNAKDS", "UniProt Q86YP4": "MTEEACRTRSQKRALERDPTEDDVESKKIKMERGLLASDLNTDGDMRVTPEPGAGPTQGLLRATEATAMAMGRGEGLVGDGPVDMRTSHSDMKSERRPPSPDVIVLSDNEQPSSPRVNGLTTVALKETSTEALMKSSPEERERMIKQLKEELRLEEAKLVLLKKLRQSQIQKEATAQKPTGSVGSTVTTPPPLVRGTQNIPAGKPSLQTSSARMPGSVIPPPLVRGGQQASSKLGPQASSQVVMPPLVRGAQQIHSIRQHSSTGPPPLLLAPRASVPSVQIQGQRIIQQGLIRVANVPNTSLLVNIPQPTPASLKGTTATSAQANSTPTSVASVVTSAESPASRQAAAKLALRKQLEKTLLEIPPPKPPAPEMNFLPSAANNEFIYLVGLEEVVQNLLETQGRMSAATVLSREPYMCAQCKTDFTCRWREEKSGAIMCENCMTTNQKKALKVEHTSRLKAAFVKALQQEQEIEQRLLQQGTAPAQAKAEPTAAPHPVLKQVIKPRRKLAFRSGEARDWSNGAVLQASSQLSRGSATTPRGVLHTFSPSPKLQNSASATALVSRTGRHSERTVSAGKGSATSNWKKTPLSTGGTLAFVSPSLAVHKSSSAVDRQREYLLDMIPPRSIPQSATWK", "UniProt P50440": "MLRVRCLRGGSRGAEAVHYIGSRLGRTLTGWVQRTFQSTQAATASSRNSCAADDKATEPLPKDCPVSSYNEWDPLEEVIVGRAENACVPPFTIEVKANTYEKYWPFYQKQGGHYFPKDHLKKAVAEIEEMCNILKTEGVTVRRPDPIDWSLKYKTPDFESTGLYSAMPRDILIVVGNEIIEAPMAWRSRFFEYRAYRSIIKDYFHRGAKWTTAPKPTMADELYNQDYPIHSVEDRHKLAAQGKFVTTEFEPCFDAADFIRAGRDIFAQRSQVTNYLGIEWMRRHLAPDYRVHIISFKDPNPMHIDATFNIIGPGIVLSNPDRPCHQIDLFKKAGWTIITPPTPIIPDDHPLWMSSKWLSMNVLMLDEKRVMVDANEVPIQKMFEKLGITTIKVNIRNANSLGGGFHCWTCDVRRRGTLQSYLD", "UniProt Q96AE4": "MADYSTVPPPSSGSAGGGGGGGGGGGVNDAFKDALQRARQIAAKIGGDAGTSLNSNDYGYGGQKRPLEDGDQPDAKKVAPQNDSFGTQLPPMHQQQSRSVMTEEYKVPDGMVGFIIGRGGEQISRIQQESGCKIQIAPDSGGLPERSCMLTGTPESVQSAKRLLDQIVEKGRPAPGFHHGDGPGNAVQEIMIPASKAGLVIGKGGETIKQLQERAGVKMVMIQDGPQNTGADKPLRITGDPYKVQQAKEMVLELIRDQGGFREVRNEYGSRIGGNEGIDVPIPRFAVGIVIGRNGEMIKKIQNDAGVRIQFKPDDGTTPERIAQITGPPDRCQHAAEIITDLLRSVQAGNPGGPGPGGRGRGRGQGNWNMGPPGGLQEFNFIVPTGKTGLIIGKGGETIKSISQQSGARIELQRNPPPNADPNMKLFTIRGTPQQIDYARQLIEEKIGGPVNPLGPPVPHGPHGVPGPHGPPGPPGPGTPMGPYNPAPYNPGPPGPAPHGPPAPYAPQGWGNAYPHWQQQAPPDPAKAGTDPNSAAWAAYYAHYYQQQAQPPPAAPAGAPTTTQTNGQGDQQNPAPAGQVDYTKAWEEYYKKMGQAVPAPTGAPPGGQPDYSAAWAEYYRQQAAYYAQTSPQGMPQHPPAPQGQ", "UniProt Q6UN15": "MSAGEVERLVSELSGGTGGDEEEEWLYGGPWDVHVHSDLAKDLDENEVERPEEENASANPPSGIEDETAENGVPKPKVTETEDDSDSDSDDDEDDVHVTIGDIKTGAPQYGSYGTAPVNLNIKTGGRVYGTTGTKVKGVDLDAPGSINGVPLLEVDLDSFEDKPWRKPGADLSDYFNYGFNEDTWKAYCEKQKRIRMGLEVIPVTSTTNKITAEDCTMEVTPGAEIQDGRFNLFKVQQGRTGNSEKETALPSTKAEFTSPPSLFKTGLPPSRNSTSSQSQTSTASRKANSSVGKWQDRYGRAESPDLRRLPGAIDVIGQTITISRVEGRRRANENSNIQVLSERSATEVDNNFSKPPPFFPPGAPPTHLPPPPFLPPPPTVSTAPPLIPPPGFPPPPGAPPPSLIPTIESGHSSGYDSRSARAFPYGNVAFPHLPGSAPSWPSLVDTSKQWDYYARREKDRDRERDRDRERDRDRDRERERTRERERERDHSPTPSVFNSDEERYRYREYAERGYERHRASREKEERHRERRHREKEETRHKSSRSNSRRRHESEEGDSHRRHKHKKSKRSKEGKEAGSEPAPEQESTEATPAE", "UniProt Q14C86": "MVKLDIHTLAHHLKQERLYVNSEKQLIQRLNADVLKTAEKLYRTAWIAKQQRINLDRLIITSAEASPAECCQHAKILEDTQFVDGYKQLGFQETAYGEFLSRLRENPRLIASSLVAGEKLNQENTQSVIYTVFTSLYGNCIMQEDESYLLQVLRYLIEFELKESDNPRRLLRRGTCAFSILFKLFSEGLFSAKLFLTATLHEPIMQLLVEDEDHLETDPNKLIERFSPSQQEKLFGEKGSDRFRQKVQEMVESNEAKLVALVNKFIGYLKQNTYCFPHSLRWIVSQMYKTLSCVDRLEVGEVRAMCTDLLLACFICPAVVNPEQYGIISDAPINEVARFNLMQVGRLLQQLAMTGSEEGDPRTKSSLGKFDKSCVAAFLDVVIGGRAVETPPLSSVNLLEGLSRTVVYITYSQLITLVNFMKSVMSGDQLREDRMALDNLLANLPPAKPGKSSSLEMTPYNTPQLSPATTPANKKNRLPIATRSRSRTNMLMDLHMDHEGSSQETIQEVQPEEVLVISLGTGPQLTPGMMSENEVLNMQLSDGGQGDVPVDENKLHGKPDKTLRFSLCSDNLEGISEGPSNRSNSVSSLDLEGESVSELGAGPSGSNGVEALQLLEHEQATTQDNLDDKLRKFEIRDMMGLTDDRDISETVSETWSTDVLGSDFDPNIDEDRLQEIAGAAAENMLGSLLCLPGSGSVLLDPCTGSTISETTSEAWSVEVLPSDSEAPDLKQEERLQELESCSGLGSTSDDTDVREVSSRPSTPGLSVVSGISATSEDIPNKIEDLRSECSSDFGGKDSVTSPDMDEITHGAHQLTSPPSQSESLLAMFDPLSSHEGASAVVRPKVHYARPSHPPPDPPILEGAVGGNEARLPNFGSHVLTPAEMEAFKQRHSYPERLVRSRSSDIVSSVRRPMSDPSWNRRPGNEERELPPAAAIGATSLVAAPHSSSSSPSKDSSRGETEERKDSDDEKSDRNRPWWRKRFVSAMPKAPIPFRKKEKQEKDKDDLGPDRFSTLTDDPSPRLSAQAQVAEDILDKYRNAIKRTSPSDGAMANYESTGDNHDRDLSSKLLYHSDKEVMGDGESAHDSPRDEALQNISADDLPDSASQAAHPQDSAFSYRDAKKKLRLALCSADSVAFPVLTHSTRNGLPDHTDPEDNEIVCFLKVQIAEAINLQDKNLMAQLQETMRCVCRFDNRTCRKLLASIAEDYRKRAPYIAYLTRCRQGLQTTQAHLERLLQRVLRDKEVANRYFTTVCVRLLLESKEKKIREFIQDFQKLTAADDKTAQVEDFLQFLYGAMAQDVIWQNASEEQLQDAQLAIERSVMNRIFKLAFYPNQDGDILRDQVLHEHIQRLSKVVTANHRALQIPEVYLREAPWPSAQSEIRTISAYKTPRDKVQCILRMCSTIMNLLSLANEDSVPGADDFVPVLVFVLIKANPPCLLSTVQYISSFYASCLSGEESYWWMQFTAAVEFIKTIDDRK", "UniProt Q9NRD1": "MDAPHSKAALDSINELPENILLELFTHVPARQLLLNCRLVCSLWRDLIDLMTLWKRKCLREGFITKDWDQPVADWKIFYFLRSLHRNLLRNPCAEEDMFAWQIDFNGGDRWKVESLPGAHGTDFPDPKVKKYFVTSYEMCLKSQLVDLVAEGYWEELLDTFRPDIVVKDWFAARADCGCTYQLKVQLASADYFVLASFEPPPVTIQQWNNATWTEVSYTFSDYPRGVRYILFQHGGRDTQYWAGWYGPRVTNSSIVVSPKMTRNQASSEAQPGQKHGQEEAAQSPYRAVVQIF", "UniProt O43524": "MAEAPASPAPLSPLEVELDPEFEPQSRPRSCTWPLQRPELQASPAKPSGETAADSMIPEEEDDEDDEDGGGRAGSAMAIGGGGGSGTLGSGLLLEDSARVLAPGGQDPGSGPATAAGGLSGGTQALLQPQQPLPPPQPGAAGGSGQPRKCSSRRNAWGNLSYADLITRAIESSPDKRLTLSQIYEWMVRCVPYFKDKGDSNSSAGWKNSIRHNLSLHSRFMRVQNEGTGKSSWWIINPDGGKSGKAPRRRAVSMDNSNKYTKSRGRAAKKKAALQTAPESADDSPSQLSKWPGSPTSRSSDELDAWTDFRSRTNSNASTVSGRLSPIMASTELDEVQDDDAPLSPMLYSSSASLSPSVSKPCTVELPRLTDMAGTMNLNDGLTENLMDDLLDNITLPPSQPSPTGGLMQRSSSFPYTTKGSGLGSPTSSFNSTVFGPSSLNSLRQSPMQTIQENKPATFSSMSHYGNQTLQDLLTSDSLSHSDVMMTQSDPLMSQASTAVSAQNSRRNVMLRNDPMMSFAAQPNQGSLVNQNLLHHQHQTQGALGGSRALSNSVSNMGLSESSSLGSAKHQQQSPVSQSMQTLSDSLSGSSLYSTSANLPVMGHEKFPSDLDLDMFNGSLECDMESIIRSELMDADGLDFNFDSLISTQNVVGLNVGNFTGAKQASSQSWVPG", "UniProt Q9NQT4, whole entry": "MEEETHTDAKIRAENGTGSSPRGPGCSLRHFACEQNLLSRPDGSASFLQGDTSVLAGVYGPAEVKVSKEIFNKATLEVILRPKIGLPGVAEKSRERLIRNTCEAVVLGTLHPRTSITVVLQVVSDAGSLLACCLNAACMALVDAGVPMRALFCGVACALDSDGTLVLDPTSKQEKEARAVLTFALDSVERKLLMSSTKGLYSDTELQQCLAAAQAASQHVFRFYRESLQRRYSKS", "UniProt Q9UK99": "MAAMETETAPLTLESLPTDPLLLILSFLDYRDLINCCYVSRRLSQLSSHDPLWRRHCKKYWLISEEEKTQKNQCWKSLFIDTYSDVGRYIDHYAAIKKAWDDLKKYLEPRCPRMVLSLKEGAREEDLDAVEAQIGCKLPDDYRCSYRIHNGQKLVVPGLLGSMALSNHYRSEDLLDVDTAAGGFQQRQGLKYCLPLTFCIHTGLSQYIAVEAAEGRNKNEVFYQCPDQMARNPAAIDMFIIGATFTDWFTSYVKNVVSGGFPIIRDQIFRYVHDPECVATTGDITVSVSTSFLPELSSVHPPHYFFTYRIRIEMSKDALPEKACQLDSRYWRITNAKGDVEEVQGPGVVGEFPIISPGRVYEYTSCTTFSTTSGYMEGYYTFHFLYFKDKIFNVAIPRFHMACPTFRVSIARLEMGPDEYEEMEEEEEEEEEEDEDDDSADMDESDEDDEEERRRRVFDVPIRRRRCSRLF", "UniProt P11413, whole entry": "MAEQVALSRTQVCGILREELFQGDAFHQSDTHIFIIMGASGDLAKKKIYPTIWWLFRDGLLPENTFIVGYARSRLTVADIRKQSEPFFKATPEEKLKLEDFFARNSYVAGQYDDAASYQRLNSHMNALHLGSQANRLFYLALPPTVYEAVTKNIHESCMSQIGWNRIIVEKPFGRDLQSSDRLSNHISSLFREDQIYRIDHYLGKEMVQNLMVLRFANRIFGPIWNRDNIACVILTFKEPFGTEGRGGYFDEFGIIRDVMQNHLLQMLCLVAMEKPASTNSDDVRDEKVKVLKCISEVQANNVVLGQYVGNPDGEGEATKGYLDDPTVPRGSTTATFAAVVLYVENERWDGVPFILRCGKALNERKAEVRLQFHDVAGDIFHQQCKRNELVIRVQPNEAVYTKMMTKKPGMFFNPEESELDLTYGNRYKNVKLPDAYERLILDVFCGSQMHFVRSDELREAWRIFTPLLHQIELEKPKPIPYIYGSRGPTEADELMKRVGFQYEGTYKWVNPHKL"},
  "source": "the supplement of paper PMC7666118",
  "note": "The list shows a part of the results.",
  "data": [
    {"compound": "COc1ccc(Cn2ccc3ccc(C(=O)NO)cc32)cc1", "test": "dose-dependent thermal stabilisation call (2D-TPP, DLPTP, 10% FDR) (binary (1 = stabilised)); higher = stabilised by the compound", "details": "system: HL-60 intact cells; concentration range 0.04-10 µM", "values": [
      {"target": "GAN (UniProt Q9H2C0)", "dose-dependent thermal stabilisation call": "inactive: 0"},
      {"target": "GALK2 (UniProt Q01415)", "dose-dependent thermal stabilisation call": "inactive: 0"},
      {"target": "FNBP1 (UniProt Q96RU3)", "dose-dependent thermal stabilisation call": "inactive: 0"},
      {"target": "FAM122A (UniProt Q96E09)", "dose-dependent thermal stabilisation call": "inactive: 0"},
      {"target": "FAM78A (UniProt Q5JUQ0)", "dose-dependent thermal stabilisation call": "inactive: 0"},
      {"target": "FTSJD1 (UniProt Q8IYT2)", "dose-dependent thermal stabilisation call": "inactive: 0"},
      {"target": "GATAD2A (UniProt Q86YP4)", "dose-dependent thermal stabilisation call": "inactive: 0"},
      {"target": "GATM (UniProt P50440)", "dose-dependent thermal stabilisation call": "inactive: 0"},
      {"target": "EXOSC7 (UniProt Q15024)", "dose-dependent thermal stabilisation call": "inactive: 0"},
      {"target": "GABARAP (UniProt O95166)", "dose-dependent thermal stabilisation call": "inactive: 0"},
      {"target": "FARSB (UniProt Q9NSD9)", "dose-dependent thermal stabilisation call": "inactive: 0"},
      {"target": "FUBP1 (UniProt Q96AE4)", "dose-dependent thermal stabilisation call": "inactive: 0"},
      {"target": "FH (UniProt P07954)", "dose-dependent thermal stabilisation call": "inactive: 0"},
      {"target": "FKSG24 (UniProt Q567V2)", "dose-dependent thermal stabilisation call": "inactive: 0"},
      {"target": "FCHO1 (UniProt O14526)", "dose-dependent thermal stabilisation call": "inactive: 0"},
      {"target": "FIP1L1 (UniProt Q6UN15)", "dose-dependent thermal stabilisation call": "inactive: 0"},
      {"target": "FTO (UniProt Q9C0B1)", "dose-dependent thermal stabilisation call": "inactive: 0"},
      {"target": "ETV6 (UniProt P41212)", "dose-dependent thermal stabilisation call": "inactive: 0"},
      {"target": "FANCD2 (UniProt Q9BXW9)", "dose-dependent thermal stabilisation call": "inactive: 0"},
      {"target": "FLYWCH2 (UniProt Q96CP2)", "dose-dependent thermal stabilisation call": "inactive: 0"},
      {"target": "GAPVD1 (UniProt Q14C86)", "dose-dependent thermal stabilisation call": "inactive: 0"},
      {"target": "FBXO33 (UniProt Q7Z6M2)", "dose-dependent thermal stabilisation call": "inactive: 0"},
      {"target": "FBXO6 (UniProt Q9NRD1)", "dose-dependent thermal stabilisation call": "inactive: 0"},
      {"target": "FARSA (UniProt Q9Y285)", "dose-dependent thermal stabilisation call": "inactive: 0"},
      {"target": "GALT (UniProt P07902)", "dose-dependent thermal stabilisation call": "inactive: 0"},
      {"target": "FOXO3 (UniProt O43524)", "dose-dependent thermal stabilisation call": "inactive: 0"},
      {"target": "EXOSC5 (UniProt Q9NQT4)", "dose-dependent thermal stabilisation call": "inactive: 0"},
      {"target": "FBXO3 (UniProt Q9UK99)", "dose-dependent thermal stabilisation call": "inactive: 0"},
      {"target": "G6PD (UniProt P11413)", "dose-dependent thermal stabilisation call": "inactive: 0"},
      {"target": "FLI1 (UniProt Q01543)", "dose-dependent thermal stabilisation call": "inactive: 0"},
      {"target": "FLOT1 (UniProt O75955)", "dose-dependent thermal stabilisation call": "inactive: 0"},
      {"target": "GABPA (UniProt Q06546)", "dose-dependent thermal stabilisation call": "inactive: 0"},
      {"target": "FBXO5 (UniProt Q9UKT4)", "dose-dependent thermal stabilisation call": "inactive: 0"},
      {"target": "FNDC3A (UniProt Q9Y2H6)", "dose-dependent thermal stabilisation call": "inactive: 0"},
      {"target": "FCHSD2 (UniProt O94868)", "dose-dependent thermal stabilisation call": "inactive: 0"},
      {"target": "FES (UniProt P07332)", "dose-dependent thermal stabilisation call": "inactive: 0"},
      {"target": "FAM175A (UniProt Q6UWZ7)", "dose-dependent thermal stabilisation call": "inactive: 0"},
      {"target": "EYA3 (UniProt Q99504)", "dose-dependent thermal stabilisation call": "inactive: 0"}
    ]}
  ]
}
